These are yes or no findings as the source states them, for the method shown. Binding seen in cells or lysates may run through a third protein. Here binding means that the protein was enriched with, or labelled near, the bait; the list need not be complete. Where a sequence is shown, tags or fusion partners need not be part of it.
Target: T1, MVPA-TurboID (D. discoideum Major Vault Protein A fused to the TurboID biotin ligase) (D. discoideum) (UniProt P34118)
T1 sequence: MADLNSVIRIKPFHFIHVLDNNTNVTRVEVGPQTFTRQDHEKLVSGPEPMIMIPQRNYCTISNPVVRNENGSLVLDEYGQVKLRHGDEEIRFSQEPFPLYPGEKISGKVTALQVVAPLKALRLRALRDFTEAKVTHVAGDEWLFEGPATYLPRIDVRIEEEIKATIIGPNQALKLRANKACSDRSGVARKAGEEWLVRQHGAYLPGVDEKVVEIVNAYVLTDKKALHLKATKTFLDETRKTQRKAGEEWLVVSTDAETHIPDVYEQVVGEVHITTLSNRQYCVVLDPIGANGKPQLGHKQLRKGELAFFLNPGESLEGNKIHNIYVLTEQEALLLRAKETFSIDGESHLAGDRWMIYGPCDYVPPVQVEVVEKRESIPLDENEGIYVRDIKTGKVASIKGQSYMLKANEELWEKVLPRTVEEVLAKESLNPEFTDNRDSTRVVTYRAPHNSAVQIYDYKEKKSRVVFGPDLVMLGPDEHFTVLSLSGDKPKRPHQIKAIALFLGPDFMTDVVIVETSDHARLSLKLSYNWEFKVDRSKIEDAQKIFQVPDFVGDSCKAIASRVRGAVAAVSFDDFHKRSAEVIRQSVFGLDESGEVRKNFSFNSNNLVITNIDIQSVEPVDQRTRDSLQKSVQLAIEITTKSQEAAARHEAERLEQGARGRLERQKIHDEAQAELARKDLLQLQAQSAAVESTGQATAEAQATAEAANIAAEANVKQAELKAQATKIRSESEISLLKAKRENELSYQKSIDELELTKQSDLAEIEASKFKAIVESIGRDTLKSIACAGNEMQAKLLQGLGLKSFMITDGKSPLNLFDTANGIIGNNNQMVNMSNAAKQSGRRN
Assay: proximity labelling

By UniProt entry, the sequences of proteins in these tests, tags left out. Where a name states a change or a piece, a line headed by the entry shows the natural chain unless it says otherwise.
UniProt Q54CB5: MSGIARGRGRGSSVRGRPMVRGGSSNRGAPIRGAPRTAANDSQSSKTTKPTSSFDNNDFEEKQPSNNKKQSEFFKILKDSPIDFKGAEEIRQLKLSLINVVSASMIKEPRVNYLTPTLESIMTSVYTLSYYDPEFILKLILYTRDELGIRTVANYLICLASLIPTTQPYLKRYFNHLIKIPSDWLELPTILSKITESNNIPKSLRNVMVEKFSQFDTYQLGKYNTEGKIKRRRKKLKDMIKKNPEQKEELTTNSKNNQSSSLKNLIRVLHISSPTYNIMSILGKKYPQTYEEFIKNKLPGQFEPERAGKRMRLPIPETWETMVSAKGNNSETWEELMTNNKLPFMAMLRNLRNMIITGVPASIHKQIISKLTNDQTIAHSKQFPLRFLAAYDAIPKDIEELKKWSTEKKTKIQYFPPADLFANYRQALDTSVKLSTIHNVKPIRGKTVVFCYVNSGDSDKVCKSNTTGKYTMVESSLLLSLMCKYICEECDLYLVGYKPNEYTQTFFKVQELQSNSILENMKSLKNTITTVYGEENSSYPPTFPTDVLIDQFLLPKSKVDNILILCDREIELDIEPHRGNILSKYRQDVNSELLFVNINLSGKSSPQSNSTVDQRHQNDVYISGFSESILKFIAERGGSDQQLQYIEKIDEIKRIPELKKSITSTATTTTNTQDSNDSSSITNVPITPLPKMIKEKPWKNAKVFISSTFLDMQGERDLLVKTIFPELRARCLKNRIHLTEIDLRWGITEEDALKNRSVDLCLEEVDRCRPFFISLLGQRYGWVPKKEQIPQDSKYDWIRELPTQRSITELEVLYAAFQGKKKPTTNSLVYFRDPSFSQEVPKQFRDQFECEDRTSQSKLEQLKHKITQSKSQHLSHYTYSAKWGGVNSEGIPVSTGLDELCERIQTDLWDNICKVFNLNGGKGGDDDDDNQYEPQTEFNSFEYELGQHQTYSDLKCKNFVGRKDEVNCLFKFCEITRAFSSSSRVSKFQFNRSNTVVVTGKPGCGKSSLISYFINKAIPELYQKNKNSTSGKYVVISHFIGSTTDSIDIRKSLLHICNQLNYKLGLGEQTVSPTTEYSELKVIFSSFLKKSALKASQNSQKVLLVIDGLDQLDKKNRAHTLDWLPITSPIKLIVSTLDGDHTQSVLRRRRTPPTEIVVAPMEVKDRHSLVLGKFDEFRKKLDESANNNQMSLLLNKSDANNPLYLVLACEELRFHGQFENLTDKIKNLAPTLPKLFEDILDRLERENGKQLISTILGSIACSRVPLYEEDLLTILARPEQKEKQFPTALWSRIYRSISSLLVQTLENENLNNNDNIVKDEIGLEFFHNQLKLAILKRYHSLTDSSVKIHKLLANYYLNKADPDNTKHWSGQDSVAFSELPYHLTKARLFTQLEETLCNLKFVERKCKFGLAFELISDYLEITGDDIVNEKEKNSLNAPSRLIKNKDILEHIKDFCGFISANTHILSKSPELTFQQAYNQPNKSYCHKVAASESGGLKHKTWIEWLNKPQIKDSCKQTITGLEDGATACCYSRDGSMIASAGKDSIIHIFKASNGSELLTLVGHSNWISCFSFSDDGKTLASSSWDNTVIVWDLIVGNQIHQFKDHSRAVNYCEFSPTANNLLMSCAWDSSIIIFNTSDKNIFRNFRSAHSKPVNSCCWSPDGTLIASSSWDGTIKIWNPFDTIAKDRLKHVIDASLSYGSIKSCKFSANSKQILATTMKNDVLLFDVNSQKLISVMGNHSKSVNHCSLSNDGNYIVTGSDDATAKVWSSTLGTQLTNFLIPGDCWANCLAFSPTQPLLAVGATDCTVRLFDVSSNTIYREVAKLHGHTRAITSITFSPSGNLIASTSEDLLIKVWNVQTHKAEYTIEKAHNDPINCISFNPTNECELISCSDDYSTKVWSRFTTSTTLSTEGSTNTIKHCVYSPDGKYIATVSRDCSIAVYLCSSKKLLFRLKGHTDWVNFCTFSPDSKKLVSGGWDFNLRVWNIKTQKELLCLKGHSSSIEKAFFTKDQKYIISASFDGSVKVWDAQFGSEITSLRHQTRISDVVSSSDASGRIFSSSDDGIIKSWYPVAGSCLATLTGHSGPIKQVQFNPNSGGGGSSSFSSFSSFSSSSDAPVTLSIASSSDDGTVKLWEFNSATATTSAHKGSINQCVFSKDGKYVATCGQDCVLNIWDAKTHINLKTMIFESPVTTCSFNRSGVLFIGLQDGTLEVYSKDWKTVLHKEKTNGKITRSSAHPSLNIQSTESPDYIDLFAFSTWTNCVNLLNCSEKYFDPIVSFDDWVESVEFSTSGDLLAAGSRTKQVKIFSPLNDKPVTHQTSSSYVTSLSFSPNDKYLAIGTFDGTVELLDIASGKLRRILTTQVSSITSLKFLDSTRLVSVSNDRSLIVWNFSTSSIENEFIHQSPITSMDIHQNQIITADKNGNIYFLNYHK
UniProt Q54LJ4: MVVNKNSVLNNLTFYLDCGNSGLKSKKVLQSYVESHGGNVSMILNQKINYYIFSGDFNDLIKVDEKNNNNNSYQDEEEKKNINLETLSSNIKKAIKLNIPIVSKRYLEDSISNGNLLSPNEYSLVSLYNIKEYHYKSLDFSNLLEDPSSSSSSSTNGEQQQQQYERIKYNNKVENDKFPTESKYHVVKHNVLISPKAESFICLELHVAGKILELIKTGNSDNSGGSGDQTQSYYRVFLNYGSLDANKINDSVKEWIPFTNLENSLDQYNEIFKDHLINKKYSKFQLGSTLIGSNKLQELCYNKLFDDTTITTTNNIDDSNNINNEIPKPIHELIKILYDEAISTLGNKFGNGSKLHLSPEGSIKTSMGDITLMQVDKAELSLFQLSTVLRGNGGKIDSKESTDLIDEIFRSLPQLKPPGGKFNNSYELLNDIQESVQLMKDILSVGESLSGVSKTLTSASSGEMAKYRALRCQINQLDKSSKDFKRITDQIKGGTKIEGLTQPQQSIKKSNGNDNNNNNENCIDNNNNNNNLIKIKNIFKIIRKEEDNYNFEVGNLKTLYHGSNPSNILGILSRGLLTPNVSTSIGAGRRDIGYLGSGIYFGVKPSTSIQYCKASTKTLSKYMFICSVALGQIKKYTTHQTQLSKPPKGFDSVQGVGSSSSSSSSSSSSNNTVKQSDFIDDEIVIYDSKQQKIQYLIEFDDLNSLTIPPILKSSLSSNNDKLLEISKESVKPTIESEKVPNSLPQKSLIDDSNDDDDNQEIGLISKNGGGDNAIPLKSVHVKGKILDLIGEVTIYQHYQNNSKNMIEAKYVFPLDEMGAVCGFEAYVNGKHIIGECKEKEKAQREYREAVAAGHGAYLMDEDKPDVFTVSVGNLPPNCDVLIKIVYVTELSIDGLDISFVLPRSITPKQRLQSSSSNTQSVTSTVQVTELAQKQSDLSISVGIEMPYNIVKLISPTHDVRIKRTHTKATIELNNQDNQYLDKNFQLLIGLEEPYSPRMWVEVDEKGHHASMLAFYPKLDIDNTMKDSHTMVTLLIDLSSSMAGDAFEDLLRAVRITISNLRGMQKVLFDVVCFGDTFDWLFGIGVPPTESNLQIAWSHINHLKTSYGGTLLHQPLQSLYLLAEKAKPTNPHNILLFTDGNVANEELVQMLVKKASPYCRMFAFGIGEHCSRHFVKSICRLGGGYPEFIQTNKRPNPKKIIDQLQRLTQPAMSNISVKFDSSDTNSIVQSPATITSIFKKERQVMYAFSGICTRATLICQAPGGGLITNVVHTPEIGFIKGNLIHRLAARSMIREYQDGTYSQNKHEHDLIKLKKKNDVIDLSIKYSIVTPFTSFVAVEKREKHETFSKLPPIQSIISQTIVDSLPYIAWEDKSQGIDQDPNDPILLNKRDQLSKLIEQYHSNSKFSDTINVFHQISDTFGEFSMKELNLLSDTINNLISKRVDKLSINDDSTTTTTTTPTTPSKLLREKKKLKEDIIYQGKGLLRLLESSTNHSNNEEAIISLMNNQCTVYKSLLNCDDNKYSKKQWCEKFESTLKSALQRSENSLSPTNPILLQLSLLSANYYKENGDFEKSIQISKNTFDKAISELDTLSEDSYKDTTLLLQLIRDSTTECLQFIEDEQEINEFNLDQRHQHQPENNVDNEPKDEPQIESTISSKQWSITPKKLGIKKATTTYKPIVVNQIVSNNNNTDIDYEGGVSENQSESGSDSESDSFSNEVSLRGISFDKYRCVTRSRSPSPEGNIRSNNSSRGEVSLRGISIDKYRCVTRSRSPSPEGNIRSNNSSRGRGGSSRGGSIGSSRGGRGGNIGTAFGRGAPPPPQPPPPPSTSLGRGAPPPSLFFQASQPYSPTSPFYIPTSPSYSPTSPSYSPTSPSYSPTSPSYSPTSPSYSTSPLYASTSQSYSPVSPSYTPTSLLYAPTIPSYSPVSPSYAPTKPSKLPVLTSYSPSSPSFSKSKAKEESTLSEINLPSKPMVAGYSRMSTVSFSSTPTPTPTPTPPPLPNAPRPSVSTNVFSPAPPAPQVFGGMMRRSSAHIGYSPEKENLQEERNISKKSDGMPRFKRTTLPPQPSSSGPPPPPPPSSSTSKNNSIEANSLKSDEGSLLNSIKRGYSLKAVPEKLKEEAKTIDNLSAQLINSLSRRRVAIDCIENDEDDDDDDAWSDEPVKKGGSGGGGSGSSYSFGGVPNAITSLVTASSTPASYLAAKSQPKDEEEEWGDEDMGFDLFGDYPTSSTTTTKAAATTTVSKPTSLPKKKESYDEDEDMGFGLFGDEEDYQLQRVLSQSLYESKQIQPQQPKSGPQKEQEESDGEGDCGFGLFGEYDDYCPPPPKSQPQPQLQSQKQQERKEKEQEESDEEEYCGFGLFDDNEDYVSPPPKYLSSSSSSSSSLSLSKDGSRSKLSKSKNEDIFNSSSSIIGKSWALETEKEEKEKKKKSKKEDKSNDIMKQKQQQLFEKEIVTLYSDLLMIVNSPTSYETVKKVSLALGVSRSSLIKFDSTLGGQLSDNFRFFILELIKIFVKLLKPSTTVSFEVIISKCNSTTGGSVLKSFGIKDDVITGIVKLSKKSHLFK

Row | Molecule | binding
1 | endogenous Major Vault Protein B (MVPB) of D. discoideum (protein, UniProt P54659 1-846) MATPVQASTVIRVKPHHYIHVLDNNTNVTRVEVGPQTFTRQDHERVLNPTPLPMILIPPRQYCIIENPIIRDKEGKLVVDKFNQPKLRHGDQEIRFSQDPFPLYPGEVVIAQPVPLQVIQTNSALRLKCLRDFVEVKADKTTVSHIAGDEWLFEGPGTYYPRVEVQVVEPVRAVIIKENQALKLRARLSFVDRRDVVRQVGEEWLVRESGAYLPGVSEEIVGFIQALVLTDRIAYQLLATRSFTDSFGKVRKAGEEWIITQKDCDTYIPDVNEKVIRDIKAITLTNRQYCIVENPIDPKTGKNKLGHKELLQGDRTFFLMPGESLVKGIQNVNVLSEDEALLLSAKEEFVEKKGTTTIVHKPGDLWMIYGPCDYIPPIQVDVVERRKRIPLDVNEGIYVRDIKTGKVRSVHGSSYMLLPNEERWAKPLAPIVEELLKKSASRDQNEEHNESDRDSTKVITYRVPHNAAVQIFDYRKKEARVVFGPELVMLEPDEEFTVLSLSGKIPKRPNHIRSLALFLGPDFMTDLITVETADHARLSLKLSYNWHFKVEQDNPSKLFATSDFTGDLCKATGSLVRAAVAASTFDNFHKHSSDIIQQAVFGSTDGSSNDCLYFETNGLVITNIDVQSVEPVDQRTLDSLQKSVQLAIEITTKSQEATARQEAERLEQMARGELERQKIIDEAKNEESRSKLVQLQAQSAAVESTGQAVAEARARAEAAIIEAESEIKQARLSTRAIEIEALSEIENLKAKHIVEIQHIKSLNNLELIKAKESATIETTKFENYVEALGSDTIKSIAQAPEETKAKLLAGLGLKSFMITDGKSPLNLFDTANGLIADAQRSEVDEE | binds
2 | poly(ADP-ribose)polymerase Q8I7C6 (enzyme, UniProt Q8I7C6 1-700) MPPKKRQLSQSDEDVKTTTTTTTSTSTKPLTEIFDGIVFCFSGTFSVTQTELTKKVEGCGASTSKTCTAKVTHLVSTVDDFKKNGTAVSKALKSGIPIVTEGFITKSIEASKKLEEKDYSLSSSNDDEEEEEEEEEEEEEEEEEEVAKPTRRSSKKAPAKSEEKGEDKNKLTTRPTKKTKTNTSEAETKTAASDLDDSSSESEDEKNQISVKIKGRAANDPHFPDSRFHVYENGKDVYDATLNQTEISQNNNKFYIIQLLEADDGSSYSVWNRWGREGLKGQSSRKDFGKGGLNQAISLFCSKFYEKTKNTFTDRANFKKVAGKYDMIELDYSTDSKPKNGASTTATTTTTKKVVEHKKECSLDERVQELVKLIFDVKMMERTMTEAKYDLKKMPLGKLSKNQITKGYLVLKQIEDVMGGKSGESLSTLSSRFYTIIPHAFGMSVPPVINTNQMLIEKMNMLQNLADIEIATNIIKDSESDESNILELHYAKLKTDIQPLDENSCEYKNILLYVKNTYQGGKKPTIVNIFKIDRDGEADRYKTKKHLGNRKLLWHGSRLTNYASIISQGLRIAPPEAPVSGYRFGKGVYFADCMSLSANYCRTVGSNDFCMLLGDVALGKTADLARDTYMEKPQPNSHSTWALGTVEPDPKVFFQDTEGCITPYGQMIPSQHKGVSCYEHQYVVYDVAQVHLKYLLQLRN | binds
3 | poly(ADP-ribose)polymerase Q55GU8 (enzyme, UniProt Q55GU8 1-644) MEKHQNQVIEENRSKPLINLTFFIDSKSKFKVSNYTLSKLIKDEFGGSIAFTLNPKVDYVITTSANFFSTKTTTFLSNQDLSKIKLINEDYFISQQKLEPTQRSKINDSYSIGNKQDSQVVNVCKKENDVVEKADDDLLKIIINPKHIPSVCYGANELKQPYFPEEYLILKSNLLSSTIIGKQNTNKFFYLELHQAIDNNLKKFYRIFTQFGRTDEIQKSNSQHRYVSNDLKEAMALYSSIYSQKIESDNGYIEVKMNSITKIGSKLKLAQLKQQKENDVNANTHIKVYNEETGEEETGQQSLFQRSYIETNVSKLMDIIYKEASKCLIKNFSVEVTENGIETQLGALSMAQIEEAKSILNEINNVLNKDGIDNQENLEMLSSRFYQLVPSKISTKKNRDSSKSVINSFESLNQLSELMNMMKDLTNSFNSNKTTSESKNHLDMKYYALNTHIEHLHQASAGYQIFIRNFLSNPHHQKAIDNGEIKILNCYRLDKKLESDNFLDVGNVQYLYHGSKPQNLVGLLSRGILPPDYVKQIGGKRTDFGYLGSGIYFSDDVVSSTYTSPIGEKGSRFIIMSSVSLGKVKEFSKIQPSLQCAPSGHHSCKGLKSTPTNPTDFKNNEYVVFNPNQSKLSFLIEYIENYKK | binds

Target: T1, MVPA-TurboID (D. discoideum Major Vault Protein A fused to the TurboID biotin ligase) (D. discoideum)
Assay: proximity labelling
Remark: another data set of the same source

Row | Molecule | binding
4 | TEP1 (Q54CB5), likely Dictyostelium orthologue of Telomerase-associated protein 1 (from UniProt Q54CB5) | binds
5 | poly(ADP-ribose)polymerase Q54LJ4 (from UniProt Q54LJ4 1-2563) (enzyme) | binds
6 | poly(ADP-ribose)polymerase Q54HY5 (from UniProt Q54HY5 1-1803) (enzyme) | binds

From paper doi:10.64898/2025.12.12.693869
